Laboratory results taken from patent US5382658A, “Stability-enhanced variants of parathyroid hormone” (Allelix Biopharmaceuticals Inc., priority 1992, dated 1995).

Assay: Trypsin sensitivity: trypsin or mock incubation followed by UMR-106 adenylate cyclase assay
Conditions: trypsin:PTH 1:500 (w:w), 4 hours, room temperature; for Relative Resistance (RR): RR = TS native/TS variant; for Trypsin Sensitivity (TS): ratio EC50 trypsin/EC50 mock, average of 5 experiments
Experimental: PTH variants having an "improved stability in the presence of trypsin" are degraded by trypsin at a rate that is slower than a similarly treated native PTH control. An assay suitable for identifying a reduced tryptic digestion rate entails a two step procedure, in which a PTH variant and a native PTH control are separately incubated with trypsin for a defined period, and are then assayed for activity in the osteosarcoma-based assay just described. Protocols suitable for assaying trypsin sensitivity are described in the literature and are outlined in the examples herein.
To measure the sensitivity of a compound (native PTH or variants) to digestion with trypsin, duplicate incubations were established for each compound in either the presence of trypsin ("Trypsin Incubation") or the absence of trypsin ("Mock Incubation"). For example, a lyophilized aliquot of PTH (or variant) was solubilized for 20 minutes at room temperature in 10 mM acetic acid at a final concentration of 1 mg/mL (50 μg PTH or variant plus 50 μL 10 mM acetic acid). Following complete solubilization in acetic acid, the sample was diluted with buffer (50 mM Tris. HCl pH 7.5, "Tris buffer", to a final concentration of 1 μg/20.82 μL). A fresh trypsin stock solution was prepared for each experiment by solubilizing trypsin in Tris buffer to a final concentration of 10 μg/mL (20 μg trypsin plus 2 mL Tris buffer). The activity of the trypsin stock solution was established spectrophometrically at the beginning and the end of each experiment by monitoring its ability to cleave the synthetic substrate N-α-benzoyl-L-arginine ethyl ether (BAEE). The appearance of the cleavage product was monitored as a function of time at 253 nm. A fresh stock solution of soybean trypsin inhibitor (SBTI) was prepared in Tris buffer at a final concentration of 10 μg/mL. The ability of the SBTI stock solution to quench the activity of the trypsin stock solution was verified by the addition of an equal weight of SBTI to trypsin in the trypsin/BAEE mixture (i.e. 5 μg trypsin in trypsin/BAEE solution plus 5 μg SBTI solution).
Parallel trypsin and mock incubations were established as follows. Identical amounts of the PTH or variant sample in Tris buffer were added to each of two tubes (416.4 μL of PTH or variant sample in Tris buffer at 1 μg/20.82 μL for a total of 20 μg of PTH or variant in each of two tubes). The trypsin incubation received an amount of trypsin stock solution in Tris buffer so that the final weight of trypsin to PTH (or variant) was 1:500 (w:w) (e.g. 0.4 μg of trypsin was added to 20 μg of PTH or variant or 4 μL of trypsin stock solution containing 10 µg/mL was added to 416.2 μL of PTH or variant solution containing 1 μg/20.82 μL). The mock incubation received Tris buffer alone lacking trypsin in an amount equal to the volume of trypsin used for the parallel incubation (e.g. 4 μL of Tris buffer added to 416.2 μL of PTH or variant solution containing 1 μg/20.82 μL). The parallel tubes were then incubated for 4 hours at room temperature and were then "quenched" by the addition of an amount of SBTI sufficient to inhibit completely the trypsin (4 μL of SBTI solution in Tris buffer at a concentration of 10 μg SBTI/mL was added to each tube). A portion of each of the incubation mixtures was used to construct a series of dilutions of PTH (or variant) to test in the UMR-106 cell adenylate cyclase assay. Particularly, the quenched incubations were diluted appropriately with assay buffer to a final concentration of 5×10^-7 M (200 μL of quenched sample described above containing PTH or variant at 5×10^-6 M was diluted 10-fold with 1800 μL assay buffer). Appropriate serial dilutions (from 5×10^-7 M to 3×10^-11 M) were made with assay buffer for the trypsin incubation samples and for the mock incubation samples. Dose-response curves were generated and the relevant EC50 values were calculated. EC50^trypsin and EC50^mock correspond to the EC50 values for the trypsin and mock incubations, respectively. […]

| Molecule | Relative Resistance (RR) | Trypsin Sensitivity (TS) |
| --- | --- | --- |
| human PTH(1-84) [hPTH, reference compound] | 1.0 | 12 ± 4 |
| [His^25 ]hPTH (protein, UniProt P01270 32-115, looked up, variant R25H) Parathyroid hormone: SVSEIQLMHNLGKHLNSMERVEWLHKKLQDVHNFVALGAPLAPRDAGSQRPRKKEDNVLVESHEKSLGEADKADVNVLTKAKSQ | 2.1 ± 0.9 | 7 ± 3 |
| [His^25 His^26 Leu^27 ]hPTH (protein, UniProt P01270 32-115, looked up, variant R25H K26H K27L) Parathyroid hormone: SVSEIQLMHNLGKHLNSMERVEWLHHLLQDVHNFVALGAPLAPRDAGSQRPRKKEDNVLVESHEKSLGEADKADVNVLTKAKSQ | 5.1 ± 0.7 | 2.4 ± 0.5 |
